In the supplement of paper PMC3334620:
Whole data set: some 33,000 sequences, median “E-score (-0.5 to 0.5)” near -8e-05, cut for the highest 2% near 0.23. This is one part of the list.

Target: T1, Nrg2 (UniProt P38082)
T1 sequence: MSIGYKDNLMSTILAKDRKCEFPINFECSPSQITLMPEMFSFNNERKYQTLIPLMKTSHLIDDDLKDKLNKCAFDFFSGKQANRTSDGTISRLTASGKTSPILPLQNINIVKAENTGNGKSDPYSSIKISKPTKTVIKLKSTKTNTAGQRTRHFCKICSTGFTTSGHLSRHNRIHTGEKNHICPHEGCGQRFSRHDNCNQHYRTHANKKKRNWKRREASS
Assay: PBM E-score (8-mer binding enrichment) (E-score (-0.5 to 0.5)); higher = stronger / more preferred TF binding
Settings: protein concentration: 100 nM; construct: GST-full length
In short: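 Yeast transcription factors carrying a GST tag, as full-length proteins or DNA-binding domains, were produced by PURExpress in vitro transcription/translation. About 100-200 nM protein was applied to universal all-10-mer Agilent arrays, double-stranded by primer extension on fresh or once-stripped slides. Bound protein was detected with fluorescent anti-GST, and scans were normalised with masliner. The Universal PBM Analysis Suite gave each ungapped eight-base word, pooled with its reverse complement, an E-score, a modified Wilcoxon-Mann-Whitney statistic.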

Row | Sequence | PBM E-score
1 | GTTGACCA | 0.179
2 | AAGTTACT | -0.0227
3 | CGTACGGA | 0.0835
4 | ACTATACC | 0.122
5 | ACCCGGGC | -0.0713
6 | ATAAGCAG | -0.0137
7 | ATCCTCGC | 0.0292
8 | CGCGCGCA | 0.296
9 | GCACGTCC | 0.0773
10 | AACGGGAC | -0.00871
11 | TGTTCTAA | 0.133
12 | CACCCCGA | -0.0616
13 | ACGAGAAG | -0.0995
14 | GTAGGATA | 0.0533
15 | CTAGTACC | -0.121
16 | ATGAAGTC | -0.0277
17 | TAAGCATA | -0.11
18 | AATCCACG | 0.0453
19 | AAATGGTT | -0.0104
20 | AATATAAC | 0.167
21 | CGCCCGAC | 0.101
22 | ATGGGCCA | 0.0231

Row | Sequence | PBM E-score
23 | ACACGAGA | -0.0205
24 | CAGTCCAA | -0.00577
25 | ACCGAAAG | -0.145
26 | CATACTCG | 0.14
27 | AGACAGCA | 0.0249
28 | TACTACAA | 0.134
29 | AAGTGTTA | 0.0809
30 | ACATAAAC | 0.0128
31 | AGCGGACA | -0.126
32 | ATTAACGC | -0.0843
33 | TCGCCAGA | -0.0661
34 | AATAAACC | 0.182
35 | CTACTCGA | -0.035
36 | AATTAGCA | 0.206
37 | TCACCGAA | 0.0353
38 | ACGTGATA | 0.0362
39 | AAAAAAGA | 0.0551
40 | CTAGTCGC | -0.253
41 | CTAGACAA | -0.0221
42 | CAGGAACA | -0.105
43 | ACGGCCCC | -0.285
44 | ACAGCAAG | 0.135

Row | Sequence | PBM E-score
45 | AACTAGCC | -0.00471
46 | GAAGCGGC | -0.141
47 | GACGTGAA | -0.0822
48 | AGGGGGGC | -0.351
49 | ATTTACAA | 0.0879
50 | ATAACTTG | 0.0563
51 | TCCGTCAA | 0.0779
52 | AATAACCG | -0.0154
53 | AATTTCAG | 0.029
54 | CCTTGCCC | 0.131
55 | AAAACTTA | 0.0488
56 | AGCCAAGG | 0.201
57 | TACATATA | 0.111
58 | CCATCTTC | -0.015
59 | TCACAGGA | 0.0134
60 | TGTTGTAA | 0.102
61 | AGACTAGA | -0.328
62 | ACACCAAC | -0.137
63 | GGTCCGAA | 0.225
64 | ACGCTACA | 0.11
65 | GCGGAACC | 0.112
66 | CAACGTGA | -0.129

Row | Sequence | PBM E-score
67 | CCCGAGTC | -0.117
68 | CCGCGCCG | -0.0754
69 | ATGATGCG | 0.0752
70 | TACGTTCA | 0.00829
71 | CACACCAC | 0.175
72 | AATCCTTC | -0.215
73 | ATGCGCGG | 0.121
74 | AAACTGCG | -0.0689
75 | GTTTGTTA | 0.0909
76 | ATGGCAGA | 0.145
77 | ATTGATCG | 0.103
78 | CACGTACG | -0.0872
79 | TGAGAGAA | -0.00484
80 | AGACGGTC | -0.129
81 | ATAGCGAA | 0.135
82 | GTCACAGA | 0.136
83 | CAACTCGC | 0.186
84 | CCCTCTAA | -0.229
85 | ACCTAGAT | 0.00889
86 | CGTCCGTA | -0.106

Some values from the results shown.
ATGGCAGA | PBM E-score: 0.145
CAACTCGC | PBM E-score: 0.186
CACACCAC | PBM E-score: 0.175
AATCCTTC | PBM E-score: -0.215
